The target in the experiment is FLAG-tagged H4G (human) (UniProt Q99525). Kind of experiment: affinity purification with mass spectrometry.

Amino acid sequences for entries named in this document (tags omitted). A change or cut given only in a name is not applied to a line headed by its entry.
UniProt Q99525: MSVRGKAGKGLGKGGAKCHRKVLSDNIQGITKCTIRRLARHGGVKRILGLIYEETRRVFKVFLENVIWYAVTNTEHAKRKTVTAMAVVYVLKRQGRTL
UniProt P06748: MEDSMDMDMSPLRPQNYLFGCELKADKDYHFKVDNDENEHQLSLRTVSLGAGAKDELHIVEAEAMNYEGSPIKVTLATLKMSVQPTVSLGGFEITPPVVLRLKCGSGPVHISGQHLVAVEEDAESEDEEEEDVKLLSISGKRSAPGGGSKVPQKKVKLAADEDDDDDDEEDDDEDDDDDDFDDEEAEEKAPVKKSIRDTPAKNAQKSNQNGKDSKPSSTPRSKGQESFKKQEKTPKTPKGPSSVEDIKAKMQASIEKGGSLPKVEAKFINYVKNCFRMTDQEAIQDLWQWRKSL

These are yes or no findings as the source states them, for the method shown. Binding seen in cells or lysates may run through a third protein. Here binding means that the protein was enriched with, or labelled near, the bait; the list need not be complete.

For “NPM1 (nucleophosmin/B23) (from UniProt P06748 1-294)”, the binding result was “binds”.

The record behind these values is paper doi:10.1101/325811.
